One substance from article PMC8160817 can be followed below.

Amino acid sequences for entries named in this document (tags omitted).
UniProt Q13123: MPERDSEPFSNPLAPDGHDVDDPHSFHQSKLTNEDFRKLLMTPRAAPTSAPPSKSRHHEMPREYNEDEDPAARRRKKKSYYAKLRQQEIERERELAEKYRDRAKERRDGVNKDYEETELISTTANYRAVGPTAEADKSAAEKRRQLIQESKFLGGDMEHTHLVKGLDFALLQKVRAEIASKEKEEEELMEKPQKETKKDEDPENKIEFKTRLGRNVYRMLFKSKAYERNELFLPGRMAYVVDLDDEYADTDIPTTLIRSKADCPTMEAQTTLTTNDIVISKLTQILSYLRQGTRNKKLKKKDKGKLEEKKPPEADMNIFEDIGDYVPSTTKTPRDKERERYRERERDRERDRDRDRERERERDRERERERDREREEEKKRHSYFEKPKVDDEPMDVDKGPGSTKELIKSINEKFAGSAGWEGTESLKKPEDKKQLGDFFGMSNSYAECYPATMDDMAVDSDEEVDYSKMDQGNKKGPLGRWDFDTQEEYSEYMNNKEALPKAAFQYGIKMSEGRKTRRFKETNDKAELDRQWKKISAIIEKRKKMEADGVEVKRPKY

No constants are given. Whether binding was seen depends on the method and setting. Binding seen in cells or lysates may run through a third protein. Some entries that bind do so weakly or less than the wild type.

This assay addresses IK (human (endogenous in Ishikawa)) (UniProt Q13123). Briefly: co-IP; reciprocal IP followed by Western blotting, endogenous proteins of Ishikawa cells after cisplatin treatment; IP buffer NaCl 125 mM, HEPES 25 mM, EDTA 2.5 mM, 0.1% NP-40; overnight at 4 °C with protein A/G agarose beads. Background: Immunoblotting shows a protein as a band on a membrane.

Regarding “Ku80 (X-Ray Repair Cross Complementing 5, XRCC5) (from UniProt P13010 1-732)”, the binding result was “binds”.
